Data source: PubChem BioAssay AID504804 (Drosophila RNAi Screening Center, 2011)

- Purpose: 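dsRNAs that improve Kc cell survival under doxorubicin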 (primary screen)
- Cells: Drosophila Kc cells
- Knock-down reagent: long dsRNA against Drosophila genes, 0.5 µg dsRNA per well
- Duration: 96 h (48 h knock-down, then 48 h drug)
- Conditions: doxorubicin 5 µg/ml for 48 h, added 48 h after dsRNA
- Read-out: 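Luminescent ATP counts per replicate, not normalised, reflecting viable cells after 48 h dsRNA knock-down followed by 48 h of 5 µg/ml doxorubicin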
- Reading the numbers: raw ATP luminescence: higher = more viable cells, protection from doxorubicin
- Hit rule: 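Active when both duplicate wells lie at least 2 SD above the plate mean and protection is confirmed by rescreening and independent dsRNAs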
The deposit covers about 19,000 reagents; this is an unselected part of those that have a named target and a result. In the full data, 47 (0.25%) were called active. 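Signals are raw, not normalised; exact z-scores behind calls not deposited; actives needed confirmation, so some wells reaching 2 SD are inactive.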 Reagents against one gene are numbered here. Names joined by + are all predicted targets of the reagent.

With CG15717 (GeneID 32262), what was measured?
raw ATP luminescence, replicate 1: 3.55e5; raw ATP luminescence, replicate 2: 2.84e5; outcome: inactive

How did the screen score CG3402 (GeneID 38077)?
raw ATP luminescence, replicate 1: 65270; raw ATP luminescence, replicate 2: 69017; outcome: inactive

What did the screen give for GXIVsPLA2 (GeneID 39734)?
raw ATP luminescence, replicate 1: 39517; raw ATP luminescence, replicate 2: 39303; outcome: inactive

For CG42493 (GeneID 8674013), what does the deposit list?
raw ATP luminescence, replicate 1: 71647; raw ATP luminescence, replicate 2: 95150; outcome: inactive

What is on record for CG42566 (GeneID 8674120)?
raw ATP luminescence, replicate 1: 69353; raw ATP luminescence, replicate 2: 53697; outcome: inactive

What is on record for GatC + PolG2?
raw ATP luminescence, replicate 1: 73733; raw ATP luminescence, replicate 2: 61777; outcome: inactive

What did the screen give for TTLL3A (GeneID 33947)?
raw ATP luminescence, replicate 1: 26767; raw ATP luminescence, replicate 2: 25113; outcome: inactive

With glob1 (GeneID 41930), what was measured?
raw ATP luminescence, replicate 1: 44763; raw ATP luminescence, replicate 2: 65137; outcome: inactive

What did the screen give for Pgm2b (GeneID 36649)?
raw ATP luminescence, replicate 1: 66583; raw ATP luminescence, replicate 2: 69477; outcome: inactive

What is on record for Ns2 (GeneID 36989)?
raw ATP luminescence, replicate 1: 77670; raw ATP luminescence, replicate 2: 53837; outcome: inactive

For CG12490 (GeneID 37623), how do the results read?
raw ATP luminescence, replicate 1: 53677; raw ATP luminescence, replicate 2: 59877; outcome: inactive

What did the screen give for SREBP (GeneID 40155)?
raw ATP luminescence, replicate 1: 60340; raw ATP luminescence, replicate 2: 52137; outcome: inactive

What did the screen give for Thor (GeneID 33569)?
raw ATP luminescence, replicate 1: 93990; raw ATP luminescence, replicate 2: 62017; outcome: inactive

What did the screen give for Doc3 (GeneID 39036)?
raw ATP luminescence, replicate 1: 63467; raw ATP luminescence, replicate 2: 69597; outcome: inactive

How did the screen score CG3999 (GeneID 41253)?
raw ATP luminescence, replicate 1: 57773; raw ATP luminescence, replicate 2: 52347; outcome: inactive

How did the screen score DIP-eta (GeneID 33793)?
raw ATP luminescence, replicate 1: 24207; raw ATP luminescence, replicate 2: 34840; outcome: inactive

What did the screen give for Ptp10D (GeneID 32115)?
raw ATP luminescence, replicate 1: 3.20e5; raw ATP luminescence, replicate 2: 3.45e5; outcome: inactive

How did the screen score SdhC (GeneID 41340)?
raw ATP luminescence, replicate 1: 56237; raw ATP luminescence, replicate 2: 44497; outcome: inactive

With CR12798 (GeneID 10178819), what was measured?
raw ATP luminescence, replicate 1: 3.18e5; raw ATP luminescence, replicate 2: 3.05e5; outcome: inactive

With CG9855 (GeneID 40556), what does the deposit list?
raw ATP luminescence, replicate 1: 19080; raw ATP luminescence, replicate 2: 28920; outcome: inactive

Which result is listed for CG18870 (GeneID 59218)?
raw ATP luminescence, replicate 1: 64850; raw ATP luminescence, replicate 2: 62707; outcome: inactive

With CG14321 (GeneID 42134), what does the deposit list?
raw ATP luminescence, replicate 1: 32160; raw ATP luminescence, replicate 2: 22250; outcome: inactive

What is on record for Saysd1 (GeneID 43029)?
raw ATP luminescence, replicate 1: 75180; raw ATP luminescence, replicate 2: 82950; outcome: inactive

What did the screen give for CG46385 (GeneID 246653) #1?
raw ATP luminescence, replicate 1: 21447; raw ATP luminescence, replicate 2: 21517; outcome: inactive

For CG46385 (GeneID 246653) #2, what was measured?
raw ATP luminescence, replicate 1: 36777; raw ATP luminescence, replicate 2: 64437; outcome: inactive

With pcs (GeneID 36674), how do the results read?
raw ATP luminescence, replicate 1: 67663; raw ATP luminescence, replicate 2: 47027; outcome: inactive

Which result is listed for cv (GeneID 44510)?
raw ATP luminescence, replicate 1: 38600; raw ATP luminescence, replicate 2: 50680; outcome: inactive

Which result is listed for CG7322 (GeneID 32880)?
raw ATP luminescence, replicate 1: 2.76e5; raw ATP luminescence, replicate 2: 3.10e5; outcome: inactive

Limited to “raw ATP luminescence, replicate 2” (2 entries from above):
GXIVsPLA2 (GeneID 39734): 39303
CG42493 (GeneID 8674013): 95150
